Measured values reported in publication PMC12805866.
These are yes or no findings as the source states them, for the method shown. Binding seen in cells or lysates may run through a third protein. Some binding calls cover weakened binding; strength is not graded here.

By UniProt entry, the sequences of proteins in these tests, tags left out. Residues count along the entry.
UniProt P02545, residues 1-646: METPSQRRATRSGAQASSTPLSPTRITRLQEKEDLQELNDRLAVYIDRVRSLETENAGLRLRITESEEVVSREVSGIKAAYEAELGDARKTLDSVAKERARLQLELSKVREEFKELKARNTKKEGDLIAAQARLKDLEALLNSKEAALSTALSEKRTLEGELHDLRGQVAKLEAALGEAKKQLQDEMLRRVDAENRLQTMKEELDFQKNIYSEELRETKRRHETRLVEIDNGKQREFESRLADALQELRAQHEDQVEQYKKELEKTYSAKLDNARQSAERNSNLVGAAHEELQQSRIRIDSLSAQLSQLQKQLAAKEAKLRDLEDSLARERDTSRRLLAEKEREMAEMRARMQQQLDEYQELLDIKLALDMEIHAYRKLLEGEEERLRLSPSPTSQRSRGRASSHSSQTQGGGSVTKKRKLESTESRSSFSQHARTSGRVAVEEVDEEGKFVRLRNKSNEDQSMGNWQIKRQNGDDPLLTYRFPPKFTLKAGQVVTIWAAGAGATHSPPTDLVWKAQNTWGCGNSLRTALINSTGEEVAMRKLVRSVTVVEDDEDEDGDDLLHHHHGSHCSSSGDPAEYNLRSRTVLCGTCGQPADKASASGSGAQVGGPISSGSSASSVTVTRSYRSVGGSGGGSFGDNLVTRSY
UniProt P09874: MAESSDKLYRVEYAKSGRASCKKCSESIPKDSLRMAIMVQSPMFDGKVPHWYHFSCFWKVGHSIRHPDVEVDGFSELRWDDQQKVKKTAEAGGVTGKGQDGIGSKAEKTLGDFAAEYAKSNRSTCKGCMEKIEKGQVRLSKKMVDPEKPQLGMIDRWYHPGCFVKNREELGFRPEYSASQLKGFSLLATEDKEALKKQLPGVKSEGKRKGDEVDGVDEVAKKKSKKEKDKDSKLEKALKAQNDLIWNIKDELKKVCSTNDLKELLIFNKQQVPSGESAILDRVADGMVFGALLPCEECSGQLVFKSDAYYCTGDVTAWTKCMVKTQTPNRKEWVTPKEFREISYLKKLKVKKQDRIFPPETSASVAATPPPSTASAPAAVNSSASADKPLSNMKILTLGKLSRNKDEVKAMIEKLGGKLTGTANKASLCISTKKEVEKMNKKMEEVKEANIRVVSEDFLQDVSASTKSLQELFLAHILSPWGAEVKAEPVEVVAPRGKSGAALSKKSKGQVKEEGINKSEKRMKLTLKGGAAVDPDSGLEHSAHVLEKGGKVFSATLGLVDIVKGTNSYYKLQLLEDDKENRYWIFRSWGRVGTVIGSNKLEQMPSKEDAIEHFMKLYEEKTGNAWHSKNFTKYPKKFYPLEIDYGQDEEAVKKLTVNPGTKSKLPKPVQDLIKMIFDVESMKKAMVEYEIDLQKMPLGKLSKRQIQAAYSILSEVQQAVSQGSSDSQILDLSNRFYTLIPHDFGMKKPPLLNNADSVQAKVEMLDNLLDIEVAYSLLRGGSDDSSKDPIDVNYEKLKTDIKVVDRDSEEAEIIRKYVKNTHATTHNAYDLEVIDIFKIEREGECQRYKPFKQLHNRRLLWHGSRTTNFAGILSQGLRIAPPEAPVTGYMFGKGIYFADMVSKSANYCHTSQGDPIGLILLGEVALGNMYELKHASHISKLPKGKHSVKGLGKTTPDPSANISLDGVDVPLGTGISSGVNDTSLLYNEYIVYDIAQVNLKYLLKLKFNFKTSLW

Target: Lamin A/C (human (endogenous in human cell lines; line of the IP not stated)) (UniProt P02545)
Assay: co-IP; endogenous Lamin A/C precipitated with anti-Lamin A/C (E-1) antibody (5 ug/IP) and protein G Dynabeads from 1 mg soluble extract; IP buffer 20 mM Tris-HCl pH 7.5, 150 mM NaCl, 2 mM EGTA, 2 mM MgCl2, 0.5% NP-40, 1 mM DTT, with PARGi 1 uM and PARPi 10 uM; optional benzonase; overnight at 4 C; immunoblot; cells untreated or given various treatments interfering with fork progression (interaction not detectably altered)

binding: binds
Substance: PARP1 (from UniProt P09874 1-1014) (enzyme)
